Reference: article PMC4077834
These are yes or no findings as the source states them, for the method shown. In cells and extracts the contact can be indirect. Some results given as binding are weak or reduced against the parent protein; the word gives no strength. Where a sequence is shown, tags or fusion partners need not be part of it.

Protein sequences, listed by entry. Tags and fused reporters are not part of them.
UniProt Q06330: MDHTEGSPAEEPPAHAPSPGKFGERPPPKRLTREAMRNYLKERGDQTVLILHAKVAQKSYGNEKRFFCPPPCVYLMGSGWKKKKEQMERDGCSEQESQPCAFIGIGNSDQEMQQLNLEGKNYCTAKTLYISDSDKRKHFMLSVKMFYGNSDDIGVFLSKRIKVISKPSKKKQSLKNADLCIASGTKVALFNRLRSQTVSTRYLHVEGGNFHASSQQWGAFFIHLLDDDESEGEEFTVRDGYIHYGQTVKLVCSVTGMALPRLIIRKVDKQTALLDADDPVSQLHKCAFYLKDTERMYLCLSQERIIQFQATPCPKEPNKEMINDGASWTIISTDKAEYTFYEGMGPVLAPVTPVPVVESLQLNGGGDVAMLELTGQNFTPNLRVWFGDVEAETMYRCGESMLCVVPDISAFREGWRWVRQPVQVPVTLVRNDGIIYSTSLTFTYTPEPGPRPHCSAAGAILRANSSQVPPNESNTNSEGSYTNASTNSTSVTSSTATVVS

Biological target: Myc-tagged RBP-J (recombination signal binding protein-J) (UniProt Q06330)
Test: co-IP; HeLa cells co-transfected with pCMV-Myc-RBP-J and pEGFP-FHL1C; lysates 48 h post-transfection; immunoprecipitation with anti-Myc antibody (9E10), blot with anti-FHL1

B1: EGFP-tagged FHL1C (human four-and-a-half LIM domain protein 1C) (protein, UniProt Q13642-3 1-194)
chain: MAEKFDCHYCRDPLQGKKYVQKDGHHCCLKCFDKFCANTCVECRKPIGADSKEVHYKNRFWHDTCFRCAKCLHPLANETFVAKDNKILCNKCTTREDSPKCKGCFKAIVAGDQNVEYKGTVWHKDCFTCSNCKQVIGTGSFFPKGEDFYCVTCHETKFAKHCVKCNKGLVKAPVWWPMKDNPGTTTASTAKNAP
binding: binds
